The values that follow come from PubChem BioAssay AID330 (DTP/NCI, 2004).

The experiment relates to P388 leukemia ip, CD2F1 mice, survival T/C. Description: NCI In Vivo Anticancer Drug Screen. Data for tumor model P388 Leukemia (intraperitoneal) in CD2F1 (CDF1) mice. The following applies: T/C endpoint: median survival time, higher T/C = longer survival.
[1] abbreviates: dose: 240.0 mg/kg/injection, schedule: Q01DX005 (ip), vehicle: saline with Tween-80.
Where [2] appears, read: dose: 50.0 mg/kg/injection, schedule: Q01DX009 (ip), vehicle: Klucel (hydroxypropylcellulose) (HPC).
Where [3] appears, read: dose: 100.0 mg/kg/injection, schedule: Q01DX009 (ip), vehicle: Klucel (hydroxypropylcellulose) (HPC).
Where [4] appears, read: dose: 200.0 mg/kg/injection, schedule: Q01DX009 (ip), vehicle: Klucel (hydroxypropylcellulose) (HPC).
[5] abbreviates: dose: 50.0 mg/kg/injection, schedule: Q01DX005 (ip), vehicle: saline with Tween-80.
[6] abbreviates: dose: 100.0 mg/kg/injection, schedule: Q01DX005 (ip), vehicle: saline with Tween-80.
Setting [7] is: dose: 200.0 mg/kg/injection, schedule: Q01DX005 (ip), vehicle: saline with Tween-80.
Setting [8] is: dose: 50.0 mg/kg/injection, schedule: Q01DX009 (ip), vehicle: saline with Tween-80.
[9] abbreviates: dose: 200.0 mg/kg/injection, schedule: Q01DX001 (ip), vehicle: saline with Tween-80.

The list does not hold the whole screen: it is rich in T/C values a quarter to a half above the control, in often repeated tests (any T/C) and in doses without a T/C. Other doses and runs of a compound stand elsewhere. T/C: endpoint of the treated group in % of that of the vehicle group. Some doses have a count of surviving animals in place of a T/C: the source files T/C as zero there, which appears to mark a toxic dose or a test without result, not a measured value. Some survivor counts are full or nearly so, which does not show that the dose was tolerated: the source hardly ever lists a survival T/C far under the control, and the zero likely stands for such cases as well. Counts of survivors are from the toxicity check (mostly the fifth day) where no day follows; animals may have died later. Schedule codes are those of the source, taken here to give the interval after Q, in days (D) or hours (H), and the number of doses after X. Some entries hold several experiments; their values stand side by side, smallest first. Where survival is the endpoint, the PubChem record calls one and a half times the control and up active, and a quarter to a half above the control has no call in these data; cut-offs in other NCI protocols can differ. Some T/C values carry the count of animals alive at the toxicity check (mostly the fifth day); where none is given, no animal had died by that day.

For the compound `COC(=O)c1nnn(-c2cc(Cl)ccc2Cl)c1N`, the T/C (dose: 120.0 mg/kg/injection, schedule: Q01DX005 (ip), vehicle: saline with Tween-80) was 126 % of control. The survivor count under setting [1] is reported as 4 of 6.
`CCCNC(=O)OCC1=C(COC(=O)NCCC)C2OC1C(C(=O)OC)=C2C(=O)OC`: the survivor count is reported as 3 of 6 (dose: 100.0 mg/kg/injection, schedule: Q01DX009 (ip), vehicle: distilled water + Tween-80) and 0 of 6 (dose: 200.0 mg/kg/injection, schedule: Q01DX009 (ip), vehicle: distilled water + Tween-80).
Regarding `COC(C)(C)O/N=C(\C[P+](c1ccccc1)(c1ccccc1)c1ccccc1)c1ccc(Cl)cc1`, the survivor count runs as follows: under setting [2], 0 of 6; under setting [3], 0 of 6; under setting [4], 0 of 6.
As to `CC1CN(C(=S)NNC(C)c2cc3ccccc3cn2)CC(C)O1` (stereo unspecified), under setting [5], the T/C is 141 and 147 % of control. In addition, the survivor count under setting [6] was 0 of 5 and 1 of 6; the survivor count under setting [7] is listed as 0 of 6.
In the case of `CC1=C(C)C(=O)O[C@@H]([C@](C)(O)[C@]2(O)CC[C@@]3(O)[C@@H]4C[C@H]5O[C@]56CC=CC(=O)[C@]6(C)[C@H]4CC[C@]23C)C1`, the T/C is, setting by setting: (dose: 12.5 mg/kg/injection, schedule: Q01DX009 (ip), vehicle: Klucel (hydroxypropylcellulose) (HPC)) 133 % of control; (dose: 12.5 mg/kg/injection, schedule: Q04DX003 (ip), vehicle: Klucel (hydroxypropylcellulose) (HPC)) 125 % of control; (dose: 25.0 mg/kg/injection, schedule: Q01DX009 (ip), vehicle: Klucel (hydroxypropylcellulose) (HPC)) 142 % of control; (dose: 25.0 mg/kg/injection, schedule: Q04DX003 (ip), vehicle: Klucel (hydroxypropylcellulose) (HPC)) 125 and 128 % of control; under setting [2], 142 % of control; (dose: 50.0 mg/kg/injection, schedule: Q04DX003 (ip), vehicle: Klucel (hydroxypropylcellulose) (HPC)) 134 % of control. The T/C by setting is: (dose: 100.0 mg/kg/injection, schedule: Q04DX003 (ip), vehicle: Klucel (hydroxypropylcellulose) (HPC)) 131 and 134 % of control; (dose: 200.0 mg/kg/injection, schedule: Q04DX003 (ip), vehicle: Klucel (hydroxypropylcellulose) (HPC)) 137 and 142 % of control. Also, the survivor count is listed as 6 of 6 under setting [2], 2 of 6 under setting [3] and 3 of 6 under setting [4].
Regarding `COc1cc(NCC(O)CN(CC(C)C)C2CCCC2)c2ncccc2c1` (stereo unspecified), the survivor count was 1 of 4 and 2 of 5 (dose: 50.0 mg/kg/injection, schedule: Q01DX005 (ip), vehicle: saline); 0 of 5 (dose: 100.0 mg/kg/injection, schedule: Q01DX005 (ip), vehicle: saline); 0 of 5 (dose: 200.0 mg/kg/injection, schedule: Q01DX005 (ip), vehicle: saline).
In the case of `CCCCCCCCCCCCSC1=CC(=O)C(OC)=C(OC)C1=O`, the survivor count (dose: 25.0 mg/kg/injection, schedule: Q01DX030 (ip), vehicle: saline with Tween-80) was 3 of 6; the survivor count (dose: 50.0 mg/kg/injection, schedule: Q01DX030 (ip), vehicle: saline with Tween-80) is on record as 0 of 6; the survivor count (dose: 100.0 mg/kg/injection, schedule: Q01DX030 (ip), vehicle: saline with Tween-80) was 0 of 6; the survivor count (dose: 200.0 mg/kg/injection, schedule: Q01DX030 (ip), vehicle: saline with Tween-80) is 0 of 6.
Take `CC(C)(C)C1=CCN(C(C)(C)/C=N\O)CC1`: the survivor count is reported as 4 of 6 under setting [6] and 0 of 6 under setting [7].
Turning to `CCc1cccc(CC)c1NC(=O)OCCN(CC)CC`, the survivor count under setting [1] was 0 of 6.
`CCOC(=O)Nc1cc2c(c(N)n1)N=C(c1ccccc1)CN2`: the T/C reads like this: (dose: 4.0 mg/kg/injection, schedule: Q04DX003 (ip), vehicle: saline with Tween-80) 127 % of control; (dose: 4.5 mg/kg/injection, schedule: Q04DX003 (ip), vehicle: saline with Tween-80) 132 % of control; (dose: 8.0 mg/kg/injection, schedule: Q01DX001 (ip), vehicle: saline with Tween-80) 125 and 125 % of control [9 of 10 alive]; (dose: 9.0 mg/kg/injection, schedule: Q04DX003 (ip), vehicle: saline with Tween-80) 127 % of control [4 of 6 alive]; (dose: 18.0 mg/kg/injection, schedule: Q01DX001 (ip), vehicle: saline with Tween-80) 125 % of control [9 of 10 alive]. The survivor count (dose: 12.0 mg/kg/injection, schedule: Q01DX005 (ip), vehicle: saline with Tween-80) is 0 of 6 and 2 of 6; the survivor count (dose: 12.0 mg/kg/injection, schedule: Q01DX009 (ip), vehicle: saline with Tween-80) is reported as 1 of 6; the survivor count (dose: 18.0 mg/kg/injection, schedule: Q04DX003 (ip), vehicle: saline with Tween-80) is reported as 6 of 6; the survivor count (dose: 25.0 mg/kg/injection, schedule: Q01DX001 (ip), vehicle: saline with Tween-80) is reported as 3 of 6; the survivor count (dose: 25.0 mg/kg/injection, schedule: Q01DX005 (ip), vehicle: saline with Tween-80) is listed as 0 of 6; the survivor count (dose: 25.0 mg/kg/injection, schedule: Q01DX009 (ip), vehicle: saline with Tween-80) is listed as 0 of 6. For the same compound, the survivor count (dose: 37.0 mg/kg/injection, schedule: Q04DX003 (ip), vehicle: saline with Tween-80) is recorded as 0 of 6; the survivor count (dose: 50.0 mg/kg/injection, schedule: Q01DX001 (ip), vehicle: saline with Tween-80) was 0 of 6; the survivor count under setting [5] was 0 of 6; the survivor count under setting [8] is on record as 0 of 6; the survivor count (dose: 75.0 mg/kg/injection, schedule: Q04DX003 (ip), vehicle: saline with Tween-80) is recorded as 0 of 6; the survivor count (dose: 100.0 mg/kg/injection, schedule: Q01DX001 (ip), vehicle: saline with Tween-80) is 0 of 6. Further, the survivor count reads like this: under setting [6], 0 of 6; (dose: 100.0 mg/kg/injection, schedule: Q01DX009 (ip), vehicle: saline with Tween-80) 0 of 6; (dose: 150.0 mg/kg/injection, schedule: Q04DX003 (ip), vehicle: saline with Tween-80) 0 of 6; under setting [9], 0 of 6.
`CCN(CC)C1C(Br)c2ccccc2C(OC)N1C#N` (stereo unspecified): the survivor count (dose: 200.0 mg/kg/injection, schedule: Q01DX005 (ip), vehicle: distilled water + Tween-80 + alcohol) was 0 of 6.
On to `O=C(NC1c2ccccc2CCc2ccccc21)C(F)(F)F`, for which, under setting [8], the survivor count is 6 of 6.
Consider `CC(C)(C)N1COCCOC1`, for which, under setting [8], the T/C was 133 % of control. In addition, the survivor count (dose: 200.0 mg/kg/injection, schedule: Q01DX009 (ip), vehicle: saline with Tween-80) is on record as 0 of 6.
Take `CC(=O)Nc1ccc(N=Nc2c(C)nn(C(=N)N)c2C)cc1`: the T/C is, setting by setting: (dose: 25.0 mg/kg/injection, schedule: Q01DX009 (ip), vehicle: saline) 128 and 130 % of control; (dose: 50.0 mg/kg/injection, schedule: Q01DX009 (ip), vehicle: saline) 140 and 146 % of control [5 of 6 alive].
Take `CC1=C(C)C(=O)C(C(C)(C)CC(=O)n2cc(F)c(=O)[nH]c2=O)=C(C)C1=O`: the T/C under setting [9] is 126 % of control. The survivor count (dose: 400.0 mg/kg/injection, schedule: Q01DX001 (ip), vehicle: saline with Tween-80) is listed as 6 of 6.
As to `O=c1[nH]c(=O)n(Cl)c(=O)n1Cl`, the survivor count under setting [4] is given as 0 of 6.
